The values that follow come from publication PMC10408038 (Journal of medicinal chemistry, 2022).

Assay [1] concerns HCT-116 cells. Briefly: Cell viability assay. The settings on record: Homo sapiens, HCT-116, 72 h, read-out: IC50 (μM) HCT-116.
For assay [2], the system named is NCI-H522 cells. Briefly: Cell viability assay. The settings on record: Homo sapiens, NCI-H522, 72 h, read-out: IC50 (μM) NCI-H522.

The IC50 is the concentration needed to halve the response being measured. With `O=C(CCCCCCC(=O)Nc1ccccc1)NO` [SAHA, reference compound], the IC50 amounted to 1.31 ± 0.08 µM in assay [1] and 1.72 ± 0.28 µM in assay [2].
